Measured values as given in the supplement of paper PMC4862054.
Most entries show no effect beyond the scatter of the controls.

Columns and labels:
Test in all cases: normalised response (% of control), CellTox Green; higher = less cell death (100 = DMSO, 0 = benzethonium chloride kill control)
Conditions in all cases: incubation time: 72 h
BT-474 [1] = test system: BT-474
Protocol: (§1)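 DSRT, 72 h incubation, CellTox Green / CellTiter-Glo readout. Signal is normalised to DMSO and benzethonium chloride controls. Value is the normalised response at the lowest tested concentration.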

BT-549 [2] = test system: BT-549
Protocol: as §1

CAL-120 [3] = test system: CAL-120
Protocol: as §1

CAL-148 [4] = test system: CAL-148
Protocol: as §1

CAL-51 [5] = test system: CAL-51
Protocol: as §1

CAL-85-1 [6] = test system: CAL-85-1
Protocol: as §1

DU-4475 [7] = test system: DU-4475
Protocol: as §1

HCC1143 [8] = test system: HCC1143
Protocol: as §1

HCC1599 [9] = test system: HCC1599
Protocol: as §1

HDQ-P1 [10] = test system: HDQ-P1
Protocol: as §1

Hs578T [11] = test system: Hs578T
Protocol: as §1

MDA-MB-231 [12] = test system: MDA-MB-231
Protocol: as §1

MDA-MB-436 [13] = test system: MDA-MB-436
Protocol: as §1

MDA-MB-453 [14] = test system: MDA-MB-453
Protocol: as §1

MDA-MB-468 = test system: MDA-MB-468
Protocol: as §1

MFM-223 [15] = test system: MFM-223
Protocol: as §1

HCC1937 = test system: HCC1937
Protocol: as §1

MCF-10A [16] = test system: MCF-10A
Protocol: as §1

BT-474 [17] = test system: BT-474; remark: listed apart in the source
Protocol: (§2)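 DSRT, 72 h incubation, CellTox Green / CellTiter-Glo readout. Signal is normalised to DMSO and benzethonium chloride controls. Value is the normalised response at dose 2.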

BT-549 [18] = test system: BT-549; remark: listed apart in the source
Protocol: as §2

CAL-120 [19] = test system: CAL-120; remark: listed apart in the source
Protocol: as §2

CAL-148 [20] = test system: CAL-148; remark: listed apart in the source
Protocol: as §2

CAL-51 [21] = test system: CAL-51; remark: listed apart in the source
Protocol: as §2

CAL-85-1 [22] = test system: CAL-85-1; remark: listed apart in the source
Protocol: as §2

DU-4475 [23] = test system: DU-4475; remark: listed apart in the source
Protocol: as §2

HCC1143 [24] = test system: HCC1143; remark: listed apart in the source
Protocol: as §2

HCC1599 [25] = test system: HCC1599; remark: listed apart in the source
Protocol: as §2

HDQ-P1 [26] = test system: HDQ-P1; remark: listed apart in the source
Protocol: as §2

Hs578T [27] = test system: Hs578T; remark: listed apart in the source
Protocol: as §2

MCF-10A [28] = test system: MCF-10A; remark: listed apart in the source
Protocol: as §2

MDA-MB-231 [29] = test system: MDA-MB-231; remark: listed apart in the source
Protocol: as §2

MDA-MB-436 [30] = test system: MDA-MB-436; remark: listed apart in the source
Protocol: as §2

MDA-MB-453 [31] = test system: MDA-MB-453; remark: listed apart in the source
Protocol: as §2

MFM-223 [32] = test system: MFM-223; remark: listed apart in the source
Protocol: as §2

| Structure (SMILES) | normalised response (BT-474 [1]) | normalised response (BT-549 [2]) | normalised response (CAL-120 [3]) | normalised response (CAL-148 [4]) | normalised response (CAL-51 [5]) | normalised response (CAL-85-1 [6]) | normalised response (DU-4475 [7]) | normalised response (HCC1143 [8]) | normalised response (HCC1599 [9]) | normalised response (HDQ-P1 [10]) | normalised response (Hs578T [11]) | normalised response (MDA-MB-231 [12]) | normalised response (MDA-MB-436 [13]) | normalised response (MDA-MB-453 [14]) | normalised response (MDA-MB-468) | normalised response (MFM-223 [15]) | normalised response (HCC1937) | normalised response (MCF-10A [16]) | normalised response (BT-474 [17]) | normalised response (BT-549 [18]) | normalised response (CAL-120 [19]) | normalised response (CAL-148 [20]) | normalised response (CAL-51 [21]) | normalised response (CAL-85-1 [22]) | normalised response (DU-4475 [23]) | normalised response (HCC1143 [24]) | normalised response (HCC1599 [25]) | normalised response (HDQ-P1 [26]) | normalised response (Hs578T [27]) | normalised response (MCF-10A [28]) | normalised response (MDA-MB-231 [29]) | normalised response (MDA-MB-436 [30]) | normalised response (MDA-MB-453 [31]) | normalised response (MFM-223 [32]) |
| --- | --- | --- | --- | --- | --- | --- | --- | --- | --- | --- | --- | --- | --- | --- | --- | --- | --- | --- | --- | --- | --- | --- | --- | --- | --- | --- | --- | --- | --- | --- | --- | --- | --- | --- |
| NC(=O)Nc1cc(-c2cccc(F)c2)sc1C(=O)N[C@H]1CCCNC1 [AZD7762] (0.1 nM) | 95.6% | 108% | 101% | 105% | 94.5% | 102% | 102% | 89.3% | 105% | 92.5% | 109% | 109% | 65.2% | 94.1% | 82.8% |  |  |  |  |  |  |  |  |  |  |  |  |  |  |  |  |  |  |  |
| CC[C@@H]1C(=O)N(C)c2cnc(Nc3ccc(C(=O)NC4CCN(C)CC4)cc3OC)nc2N1C1CCCC1 [BI 2536] (0.1 nM) | 103% | 96.6% | 92.9% | 103% | 114% | 103% | 99.5% | 89% | 95.4% | 66.5% | 102% | 98.7% | 72.3% | 109% | 87.2% | 97.3% |  |  |  |  |  |  |  |  |  |  |  |  |  |  |  |  |  |  |
| COc1cc(Nc2c(C#N)cnc3cc(OCCCN4CCN(C)CC4)c(OC)cc23)c(Cl)cc1Cl [Bosutinib] (1 nM) | 97.9% | 89% | 96.1% | 80.3% | 113% | 97% | 108% | 122% | 104% |  | 112% | 98.2% | 88.9% | 105% |  | 95.8% | 107% | 98.9% |  |  |  |  |  |  |  |  |  |  |  |  |  |  |  |  |
| Cc1ccc(-n2nc(C(C)(C)C)cc2NC(=O)Nc2ccc(OCCN3CCOCC3)c3ccccc23)cc1 [Doramapimod] (1 nM) | 98.7% | 107% | 95.8% | 99.9% |  | 98.7% | 93.2% | 108% | 97.3% |  | 105% | 88.6% | 81.8% | 100% | 98.4% | 97.3% | 102% | 74.2% |  |  |  |  |  |  |  |  |  |  |  |  |  |  |  |  |
| CCCCCCCCc1ccc(CCC(N)(CO)CO)cc1 [Fingolimod] (1 nM) | 103% | 102% | 102% | 106% | 123% | 107% | 102% | 96.7% | 100% | 98.5% | 107% | 101% | 56% | 112% | 69.7% | 102% |  | 72.9% |  |  |  |  |  |  |  |  |  |  |  |  |  |  |  |  |
| C[C@@H]1C=C2C(=O)O[C@@H]3CC[C@H](C1)[C@]23O [Galiellalactone] (5 nM) | 102% | 97.3% | 97.3% | 107% | 117% | 103% | 103% | 96.6% | 94.8% | 99.7% | 111% | 111% | 70.5% | 110% | 108% | 105% | 110% |  |  |  |  |  |  |  |  |  |  |  |  |  |  |  |  |  |
| COc1cc2ncnc(Nc3ccc(F)c(Cl)c3)c2cc1OCCCN1CCOCC1 [Gefitinib] (1 nM) | 101% | 96.5% | 101% | 85.9% | 111% | 97.6% | 101% | 125% | 102% |  | 73.7% | 113% | 102% | 106% | 87.8% | 99.3% | 100% | 84.7% |  |  |  |  |  |  |  |  |  |  |  |  |  |  |  |  |
| Nc1ccccc1NC(=O)c1ccc(CNc2nccc(-c3cccnc3)n2)cc1 [Mocetinostat] (1 nM) | 98.4% | 104% | 102% |  | 73.9% | 106% | 99.6% | 107% | 94.7% | 59.6% | 67.2% | 107% | 84.1% | 101% | 78.1% | 102% | 97.9% |  |  |  |  |  |  |  |  |  |  |  |  |  |  |  |  |  |
| CC1(C)CCC(c2ccc(Cl)cc2)=C(CN2CCN(c3ccc(C(=O)NS(=O)(=O)c4ccc(N[C@H](CCN5CCOCC5)CSc5ccccc5)c(S(=O)(=O)C(F)(F)F)c4)cc3)CC2)C1 [Navitoclax] (1 nM) | 91.4% | 95.8% | 98.3% | 101% | 88.5% | 99.5% | 97.9% | 122% | 98.5% |  | 86.8% | 98.1% | 84.7% | 103% | 79.8% | 82.1% | 99.9% | 101% |  |  |  |  |  |  |  |  |  |  |  |  |  |  |  |  |
| CC[C@H](C)C(=O)O[C@H]1C[C@H](O)C=C2C=C[C@H](C)[C@H](CC[C@@H](O)C[C@@H](O)CC(=O)O)[C@H]21 [Pravastatin] (1 nM) | 98.5% | 106% | 79% | 94.1% | 106% | 93.6% | 100% | 103% | 101% | 101% | 67.1% | 102% | 73.3% | 86.9% | 86.6% | 103% |  | 103% |  |  |  |  |  |  |  |  |  |  |  |  |  |  |  |  |
| CC[C@H](CO)Nc1nc(NCc2ccccc2)c2ncn(C(C)C)c2n1 [Seliciclib] (1 nM) | 104% | 92.7% | 98.5% | 96.6% | 117% | 105% | 101% | 120% | 103% |  | 85.9% | 101% | 68.1% | 104% | 116% | 85.6% | 92.3% | 94.8% |  |  |  |  |  |  |  |  |  |  |  |  |  |  |  |  |

Some entries already given with just normalised response (Hs578T [11]), normalised response (HCC1599 [9]) and normalised response (Hs578T [27]):
Structure (SMILES)	normalised response (Hs578T [11])	normalised response (HCC1599 [9])	normalised response (Hs578T [27])
CC[C@H](C)C(=O)O[C@H]1C[C@H](O)C=C2C=C[C@H](C)[C@H](CC[C@@H](O)C[C@@H](O)CC(=O)O)[C@H]21 [Pravastatin] (1 nM)	67.1%	101%	
CC[C@H](CO)Nc1nc(NCc2ccccc2)c2ncn(C(C)C)c2n1 [Seliciclib] (1 nM)	85.9%	103%	
